Source: PubChem BioAssay AID1347076 (National Center for Advancing Translational Sciences (NCATS), 2019)
Out of some 400,000 compounds screened, about 13,000 (3.2%) were called active. Inconclusive results, whose numbers are uncertain, are shown with a selection of clear calls. Calls come from the whole dose curve; as a rule, active = well fitted cell-killing curve with a large enough effect; inconclusive = small, poorly fitted or top-dose-only effect, or effect the other way; inactive = flat fitted curve, though single readings scatter. Where the call is inconclusive, the potency comes from a doubtful curve fit.
% is set by controls: 0 for no effect and ±100 for the full control effect; potency is the fitted concentration of half-maximal effect.

Assay: qHTS assay for MDR1-selective chemotherapeutics: Primary screen using the drug-selected MDR subline cells KB-V1; note: nearly all actives have a fitted effect of over 60% in size
Conditions: KB-V1 MDR cells viability, CellTiter-Glo, 72 h; activity change, negative = cytotoxicity: at 46.1 µM (top of the series)
Method in brief: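 Compound-treated KB-V1 multidrug-resistant cells, 72 h, 37 degrees C; viability by CellTiter-Glo. Fitted qHTS curves give the values.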
With `O=C1CSC(c2cccnc2)N1Cc1ccc(Cl)cc1Cl` (stereo not given) the Potency was inconclusive: 1.84 µM [rising, partial curve, poor fit].
In the case of `Cc1ccc(-c2c[n+](CC(=O)Nc3cc(=O)n(C)c(=O)n3C)c3n2CCC3)cc1`, the “activity change, negative = cytotoxicity” value is reported as inactive: -4.82%.
For `O=C(NCC1CCCO1)c1ccc2c(=O)n(CC3CCCO3)c(=S)[nH]c2c1` (stereo not given), the “activity change, negative = cytotoxicity” value was inactive: 7.26%.
For `CC(C)(C)NC(=O)C[C@H]1C[C@H](C(=O)N2CCCCC2)[C@@]2(CCc3ccccc3)c3[nH]c4ccc(Cl)cc4c3CCN2C1=O`, the “activity change, negative = cytotoxicity” value was inactive: 2.69%.
With `O=C(NC1(C(F)(F)F)N=C2SCCN2C1=O)c1ccccc1F` (stereo not given) the Potency was inconclusive: 23.1 µM [rising, single point].
For `COc1ccccc1-c1ccc2c(c1)O[C@@H](CN(C)C(=O)c1ccncc1)[C@H](C)CN([C@@H](C)CO)S2(=O)=O`, the “activity change, negative = cytotoxicity” value was inactive: -0.68%.
For `COC(=O)[C@@]12C[C@@H](CC(=O)N3CCSCC3)C(=O)N(Cc3ccc4c(c3)OCO4)C1=CCC(C)(C)C2`, the “activity change, negative = cytotoxicity” value was inactive: -32.2%.
For `O=C(Nc1ccc(Nc2ccccc2)cc1)c1ccc(Br)o1`, the Potency was active: 13 µM.
With `Cc1onc(-c2ccccc2)c1C(=O)OCC(=O)c1ccc(F)cc1` the Potency was inconclusive: 29.1 µM [cytotoxic, single point].
In the case of `CCc1cccc(NS(=O)(=O)c2c(C)[nH]c(=O)[nH]c2=O)c1`, the Potency is reported as “inactive”.
With `Nn1c(SCC(=O)Nc2cc(C(F)(F)F)ccc2Cl)nncc1=O` the “activity change, negative = cytotoxicity” value was inactive: 1.36%.
In the case of `Cc1c(C#N)c(NC(=O)CCl)n(Cc2cccs2)c1C`, the Potency is reported as inconclusive: 29.1 µM [cytotoxic, single point].
With `CCCCCCCC(=O)NNC(=O)CC(=O)Nc1ccccc1C(=O)O` the “activity change, negative = cytotoxicity” value was inactive: 1.8%.
In the case of `CCCCCC(O)(c1ccc(OC)cc1)C(CN1CCOCC1)c1ccccc1` (stereo not given), the Potency is reported as active: 13 µM.
For `CC1(C)Cc2c(sc3c2c(=N)n(Cc2ccco2)c(=O)n3Cc2ccccc2)CO1`, the “activity change, negative = cytotoxicity” value was inactive: -0.37%.
With `Cc1[nH]c2ccccc2c1C(=O)CSc1ccc(F)cc1` the Potency was inconclusive: 25.9 µM [cytotoxic, single point].
In the case of `OCCC1CN(Cc2nc3c(s2)CCCC3)CCN1Cc1ccsc1` (stereo not given), the Potency is reported as inconclusive: 14.6 µM [cytotoxic, partial curve].
In the case of `CC(C)c1c(C#N)c(N)nc(SCC(=O)c2cc3ccccc3oc2=O)c1C#N`, the Potency is reported as inconclusive: 23.1 µM [cytotoxic, single point].
With `CS(=O)(=O)N1CCN(c2nc(-c3ccccc3)cs2)CC1` the Potency was inconclusive: 29.1 µM [cytotoxic, single point].
In the case of `O=[N+]([O-])c1ccc(Cl)c2cccnc12`, the Potency is reported as inconclusive: 29.1 µM [cytotoxic, single point].
For `COc1ccc(CCNC(=O)CCc2c(C)nc3c4c(C)cc(C)nc4nn3c2C)cc1OC`, the “activity change, negative = cytotoxicity” value was inactive: 11.5%.
For `CC(C)(C)C(=O)Nc1ccc(C(=O)OC2CCCCC2)cc1`, the Potency was inconclusive: 16.4 µM [cytotoxic, single point].
In the case of `Fc1ccc(N2CCN(c3nc4ccccc4c4nc(-c5ccccc5)nn34)CC2)cc1`, the Potency is reported as inconclusive: 8.2 µM [rising, partial curve, poor fit].
With `CCN(C(=O)COC(=O)C1CCN(S(=O)(=O)c2ccc3c(c2)OCCO3)CC1)C1CCS(=O)(=O)C1` (stereo not given) the Potency was inconclusive: 23.1 µM [rising, partial curve, poor fit].
For `Cc1cc2c(cc1C)N(CC(=O)N1CCCC1)C(=O)CC(c1ccccc1)=N2`, the Potency was inconclusive: 29.1 µM [cytotoxic, single point].
With `COc1ccc(OCC(=O)Nc2ccc(-c3nc4cc(C)cc(C)c4o3)cc2)cc1` the “activity change, negative = cytotoxicity” value was inactive: 23.1%.
In the case of `COc1cc(NC(=O)CSc2nc(C)cc(C)n2)cc(OC)c1OC`, the Potency is reported as inconclusive: 18.4 µM [cytotoxic, partial curve].
For `O=C(c1ccc(NS(=O)(=O)c2ccccc2)cc1)N1CCCCCC1`, the Potency was inconclusive: 29.1 µM [cytotoxic, single point].
In the case of `C=CC1CN2CCC1CC2C(O)c1ccnc2ccc(OC)cc12` (stereo not given), the Potency is reported as inconclusive: 29.1 µM [rising, single point].
In the case of `O=C1NN=C(CSc2n[nH]c(=S)s2)CS1`, the activity change, negative = cytotoxicity is reported as inconclusive: 12.2%.
With `O=C1N(C2CCCC2)C[C@@H]2C[C@@H](c3cccn3-c3ccccn3)N3CCC[C@@]123` the Potency was inconclusive: 20.6 µM [cytotoxic, partial curve, poor fit].
With `Clc1cc(Br)ccc1OCCOCCOc1cccc2cccnc12` the Potency was inconclusive: 23.1 µM [cytotoxic, single point].
In the case of `CCOc1ccc(Br)cc1S(=O)(=O)Nc1ccc(N2CCOCC2)cc1`, the Potency is reported as inconclusive: 29.1 µM [cytotoxic, single point].
In the case of `Cc1ccc(S(=O)(=O)N2CCN(C(=O)c3cc(-c4ccc(Br)cc4)n[nH]3)CC2)c(C)c1`, the “activity change, negative = cytotoxicity” value is reported as inactive: -8.18%.
For `COc1cccc(-n2nc(-c3ccnn3-c3ccc(C)cc3)c(=O)n(C)c2=O)c1`, the Potency was inconclusive: 23.1 µM [cytotoxic, partial curve].
For `CCCCc1ccc(NC(=S)Nc2ccc(Cl)c(S(=O)(=O)N(C)C)c2)cc1`, the Potency was active: 23.1 µM.
In the case of `CC(OC(=O)c1ccccn1)C(=O)Nc1ccc2c(c1)OCCO2` (stereo not given), the Potency is reported as inconclusive: 29.1 µM [rising, single point].
For `O=C(O)CNC(=O)/C=C/c1ccc(Cl)cc1Cl`, the Potency was inconclusive: 29.1 µM [rising, single point].
With `CC1(c2ccc3ccccc3c2)NC(=O)N(CC(=O)N2CCN(Cc3ccc(C#N)cc3)CC2)C1=O` (stereo not given) the Potency was inconclusive: 16.4 µM [cytotoxic, single point].
For `Cc1cc(C(=O)CSc2nnc(-c3cccnc3)n2-c2ccccc2F)c(C)n1C`, the Potency was inconclusive: 25.9 µM [cytotoxic, single point].
For `Cc1nc(C(=O)Nc2ccc(Cl)cc2)sc1C1(C)CC(c2ccccc2)=NO1` (stereo not given), the Potency was inconclusive: 29.1 µM [cytotoxic, single point].
For `CC(C)N1CC(O)=C(c2nc3ccccc3[nH]2)C1=N`, the “activity change, negative = cytotoxicity” value was inactive: 10.1%.
In the case of `COc1ccc(N2CCN(C(=O)COC(=O)c3cnccn3)CC2)cc1`, the Potency is reported as inconclusive: 23.1 µM [rising, single point].
In the case of `Brc1ccc(/C=N/n2cnnc2)s1`, the Potency is reported as inconclusive: 23.1 µM [cytotoxic, single point].
In the case of `CCOC(=O)N1CCC(N(CCN(C)C)C(=S)Nc2cccc(Cl)c2C)CC1`, the “activity change, negative = cytotoxicity” value is reported as inactive: 5.58%.
With `CC1CCc2nc(NC(=O)Nc3ccc4c(c3)OCO4)sc2C1` (stereo not given) the “activity change, negative = cytotoxicity” value was inactive: -21.9%.
In the case of `CCOC(=O)C1(CCCc2ccccc2)CCN(S(C)(=O)=O)CC1`, the “activity change, negative = cytotoxicity” value is reported as inactive: -11.5%.
For `Cc1cccc(C)c1N1C(=O)[C@@H]2C(c3ccccc3Cl)=NO[C@@H]2C1=O`, the activity change, negative = cytotoxicity was inconclusive: 35.6%.
In the case of `COc1cc(CC(=O)Nc2cc(S(C)(=O)=O)ccc2Cl)cc(OC)c1OC`, the Potency is reported as inconclusive: 0.0092 µM [cytotoxic, full curve, poor fit].
In the case of `COC(=O)Cc1ccc(NC(C)=O)cc1`, the Potency is reported as inconclusive: 2.31 µM [rising, partial curve, poor fit].
With `Cc1cc(NS(=O)(=O)c2ccc(NC(=O)c3ccc([N+](=O)[O-])c(Cl)c3)cc2)no1` the Potency was inconclusive: 23.1 µM [rising, single point].
With `Cc1cc2nc(-c3ccc[nH]c3=O)n(Cc3ccccc3F)c2cc1C` the “activity change, negative = cytotoxicity” value was inactive: 20.5%.
In the case of `CCOc1ccc(NC(=O)NC(=O)N(C)S(=O)(=O)c2ccc(C)cc2)cc1`, the Potency is reported as inconclusive: 29.1 µM [rising, single point].
With `CC1(C)Cc2c(C#N)c(SCCO)nc(N3CCOCC3)c2CO1` the “activity change, negative = cytotoxicity” value was inactive: -4.05%.
In the case of `CCCn1c(NC(=O)CN2C(=O)NC3(CCCC3)C2=O)nc2ccccc21`, the activity change, negative = cytotoxicity is reported as inconclusive: -54.6%.
In the case of `Cc1cccc(C(=O)Nc2nnc(-c3cccnc3)o2)c1`, the Potency is reported as inconclusive: 23.1 µM [cytotoxic, partial curve, poor fit].
In the case of `CCOC(=O)c1ccc(NC(=O)Nc2ccn(C)n2)cc1`, the Potency is reported as active: 16.4 µM.
In the case of `Cc1cc(C(=O)N2CCN(c3ccccc3Cl)CC2)c(C)o1`, the “activity change, negative = cytotoxicity” value is reported as inactive: 0%.
For `Cc1ccc(NC(=O)C(Cc2ccccc2)NS(=O)(=O)c2ccc3c(c2)c(=O)n(C)c(=O)n3C)c(C)c1` (stereo not given), the “activity change, negative = cytotoxicity” value was inactive: 20.8%.
In the case of `CCOCCCNc1nc(C(F)(F)F)nc2c1nnn2Cc1ccccc1Cl`, the “activity change, negative = cytotoxicity” value is reported as inactive: -19.4%.
With `COc1ccc([C@H]2CC(=O)C=C(c3cc(Cl)ccc3OC)C2)cc1` the Potency was inconclusive: 23.1 µM [cytotoxic, single point].
With `CCCCN(C(=O)NCCCCCCNC(=O)N(CCCC)C1CCS(=O)(=O)C1)C1CCS(=O)(=O)C1` (stereo not given) the Potency was inconclusive: 29.1 µM [rising, single point].
In the case of `CN(c1ccccc1)S(=O)(=O)c1cccc(C(=O)Nc2ccc3c(c2)CCC3)c1`, the Potency is reported as active: 5.8 µM.
For `Cc1nc(Nc2cnc(/C=C/c3cc(C(=O)Nc4cccc(C(F)(F)F)c4)ccc3C)cn2)cc(N2CCNCC2)n1`, the Potency was inconclusive: 29.1 µM [cytotoxic, single point].
With `Cc1ccc(S(=O)(=O)N2CCCCC2)cc1NC(=O)c1ccccc1Cl` the activity change, negative = cytotoxicity was inconclusive: -39.3% [cytotoxic].
In the case of `CCOc1ccc(C(=O)N(c2ccccn2)C2CCCCC2)cc1`, the activity change, negative = cytotoxicity is reported as inconclusive: -36.8% [cytotoxic].
For `CC1Cc2ccccc2N1C(=S)NC(=O)c1ccc(Cl)cc1Cl` (stereo not given), the Potency was active: 16.4 µM.
For `COC(=O)c1ccccc1NC(=O)C12CCC(C)(C(=O)O1)C2(C)C` (stereo not given), the Potency was inconclusive: 18.4 µM [cytotoxic, partial curve, poor fit].
With `Cc1ccc(-c2cc(C(=O)Nc3ccc(SC(F)F)cc3)no2)cc1F` the Potency was inconclusive: 0.0052 µM [rising, full curve, poor fit].
In the case of `COc1ccc(N(CC(=O)NCc2cccnc2)S(=O)(=O)c2ccc(C)c([N+](=O)[O-])c2)cc1`, the Potency is reported as inconclusive: 29.1 µM [rising, single point].
